From patent US10801035B2, “Plants having increased tolerance to herbicides” (BASF SE, priority 2011, dated 2020)
For part of its entries the source gives two or more results. The other results are left out here. An entry can have further records. The values listed for one entry differ for a reason that is not stated; they may come from other doses, times, organisms or constructs than stated.

By UniProt entry, the sequences of proteins in these tests, tags left out.
UniProt P93836, whole entry M335H: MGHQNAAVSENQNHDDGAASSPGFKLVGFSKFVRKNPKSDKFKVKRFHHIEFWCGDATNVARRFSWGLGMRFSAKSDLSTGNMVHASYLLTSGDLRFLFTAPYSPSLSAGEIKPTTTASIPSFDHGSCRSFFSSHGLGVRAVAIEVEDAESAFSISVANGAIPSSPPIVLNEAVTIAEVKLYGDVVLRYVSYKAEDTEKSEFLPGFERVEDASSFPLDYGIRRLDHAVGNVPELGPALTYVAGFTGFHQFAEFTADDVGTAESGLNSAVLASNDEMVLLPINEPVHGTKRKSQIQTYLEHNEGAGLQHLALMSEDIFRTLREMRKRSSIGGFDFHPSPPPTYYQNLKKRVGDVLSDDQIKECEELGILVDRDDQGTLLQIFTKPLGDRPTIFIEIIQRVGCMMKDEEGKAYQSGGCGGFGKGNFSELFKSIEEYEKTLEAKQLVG

Experiments:
Picrophilus HPPD = assay: HPPD activity assay, Picrophilus HPPD; conditions: normalized on Hordeum HPPD
Protocol: (§1) HPPD produces homogentisic acid and CO2 from 4-hydroxyphenylpyruvate (4-HPP) and O2. The activity assay for HPPD is based on the analysis of homogentisic acid by reversed phase HPLC.
(§2) The assay mixture can contain 150 mM potassium phosphate buffer pH 7.0, 50 mM L-ascorbic acid, 1 μM FeSO4 and 7 μg of purified enzyme in a total volume of 1 ml. Inhibitors are dissolved in DMSO (dimethylsulfoxide) to a concentration of 20 mM or 0.5 mM, respectively. From this stock solution serial five-fold dilutions are prepared in DMSO, which are used in the assay. The respective inhibitor solution accounts for 1% of the assay volume. […]
Activities are normalized by setting the uninhibited enzyme activity to 100%. […] values are calculated using non-linear regression. […]
(§3) Inhibitors are dissolved in DMSO (dimethylsulfoxide) to a concentration of 0.5 mM. […] IC50 values are calculated using non-linear regression.
Using methods which are described in the above examples or well known in the art, purified, recombinant wildtype HPPD enzymes are characterized with respect to their kinetic properties and sensitivity towards HPPD inhibiting herbicides. Apparent michaelis constants (Km) and maximal reaction velocities (Vmax) are calculated by non-linear regression with the software GraphPad Prism 5 (GraphPad Software, La Jolla, USA) using a substrate inhibition model. […]

[1] = target: Arabidopsis HPPD variant M335H (Arabidopsis thaliana, UniProt P93836, M335H); assay: HPPD activity assay, Arabidopsis HPPD mutant M335H; format: biochemical; conditions: normalized on wildtype
Protocol: as §1
as §2, with “volume. Thus, final inhibitor concentrations range from 200 μM to 2.5 nM or from 5 μM to 63 pM, respectively. After a preincubation of 30 min the reaction is started by adding 4-HPP to a final concentration of 0.1 mM.” for “volume.”
as §3
Purified, mutant HPPD enzymes are obtained by the methods described above. […] Apparent michaelis constants (Km) and maximal reaction velocities (Vmax) are calculated by non-linear regression with the software GraphPad Prism 5 (GraphPad Software, La Jolla, USA) using a substrate inhibition model. […] Weighted means (by standard error) of Km and […] values are calculated from at least three independent experiments. […]

SMILES | Normalized tolerance index (TI) (Picrophilus HPPD) | Normalized tolerance index (TI) [1]
O=S1(=O)C(c2c(Cl)cc(Cl)nc2Cl)=C(O)c2ncccc2N1CC(F)F [Inhibitor 2, 1-(2,2-difluoroethyl)-2,2-dioxo-3-(2,4,6-trichloro-3-pyridyl)pyrido[3,2-c]thiazin-4-ol] | much greater and 222.8 | 
CC1=NOC(c2c(Cl)ccc(C3=C(O)c4ncccc4N(CC(F)F)S3(=O)=O)c2Cl)C1 (stereo not drawn) [Inhibitor 1, 3-[2,4-dichloro-3-(3-methyl-4,5-dihydroisoxazol-5-yl)phenyl]-1-(2,2-difluoroethyl)-2,2-dioxo-pyrido[3,2-c]thiazin-4-ol] | much greater and 289.9 | increase of tolerance index and 2.9
